Patent US9926581B2, “Fagopyritol synthase genes and uses thereof” (Cornell Research Foundation, Inc., priority 2002, dated 2018)

Test system: soybean explants
Test: Soybean explant feeding 3 days with 50 mM cyclitol in 1% sucrose, slow drying time course, soluble carbohydrates in axis, cotyledon, seed coat and leaf
[1] = 3 days transport of sucrose (1%) and D-pinitol (50 mM), after 4 days slow drying, Rep 2
[2] = 3 days transport of sucrose (1%) and D-pinitol (50 mM), after 14 days slow drying, Rep 1
[3] = 3 days transport of sucrose (1%) and D-pinitol (50 mM), after 14 days slow drying, Rep 2
[4] = 3 days transport of sucrose (1%) and D-pinitol (50 mM), before slow drying, Rep 1
[5] = 3 days transport of sucrose (1%) and D-pinitol (50 mM), before slow drying, Rep 2
[6] = 3 days transport of sucrose (1%) and myo-inositol (50 mM), after 2 days slow drying, Rep 1
[7] = 3 days transport of sucrose (1%) and myo-inositol (50 mM), after 2 days slow drying, Rep 2
[8] = 3 days transport of sucrose (1%) and myo-inositol (50 mM), after 4 days slow drying, Rep 1
[9] = 3 days transport of sucrose (1%) and myo-inositol (50 mM), after 4 days slow drying, Rep 2
[10] = 3 days transport of sucrose (1%) and myo-inositol (50 mM), after 14 days slow drying, Rep 1
[11] = 3 days transport of sucrose (1%) and myo-inositol (50 mM), after 14 days slow drying, Rep 2
[12] = 3 days transport of sucrose (1%) and myo-inositol (50 mM), before slow drying, Rep 1
[13] = 3 days transport of sucrose (1%) and myo-inositol (50 mM), before slow drying, Rep 2
[14] = 3 days transport of sucrose (1%) without cyclitols, after 2 days slow drying, Rep 1
[15] = 3 days transport of sucrose (1%) without cyclitols, after 2 days slow drying, Rep 2
[16] = 3 days transport of sucrose (1%) without cyclitols, after 4 days slow drying, Rep 1
[17] = 3 days transport of sucrose (1%) without cyclitols, after 4 days slow drying, Rep 2
[18] = 3 days transport of sucrose (1%) without cyclitols, after 14 days slow drying, Rep 1
[19] = 3 days transport of sucrose (1%) without cyclitols, after 14 days slow drying, Rep 2
[20] = 3 days transport of sucrose (1%) without cyclitols, before slow drying, Rep 1
[21] = 3 days transport of sucrose (1%) without cyclitols, before slow drying, Rep 2

## OCC1O[C@H](OCC2O[C@H](OC3C(O)[C@H](O)C(O)[C@H](O)[C@@H]3O)C(O)[C@H](O)[C@H]2O)C(O)[C@H](O)[C@H]1O (stereo partly drawn) [α-D-galactopyranosyl-(1→6)-α-D-galactopyranosyl-(1→2)-1D-chiro-inositol]
[1]
  Accumulation of soluble carbohydrates in soybean axis: 0 μg/axis
  Accumulation of soluble carbohydrates in soybean cotyledon: 11.92 μg/cotyledon
  Accumulation of soluble carbohydrates in soybean seed coat: 0 μg/seed coat
[2]
  Accumulation of soluble carbohydrates in soybean axis: 0 μg/axis
  Accumulation of soluble carbohydrates in soybean cotyledon: 1.77 μg/cotyledon
  Accumulation of soluble carbohydrates in soybean seed coat: 0 μg/seed coat
[3]
  Accumulation of soluble carbohydrates in soybean axis: 1.26 μg/axis
  Accumulation of soluble carbohydrates in soybean cotyledon: 0 μg/cotyledon
  Accumulation of soluble carbohydrates in soybean seed coat: 0 μg/seed coat
[4]
  Accumulation of soluble carbohydrates in soybean axis: 0 μg/axis
  Accumulation of soluble carbohydrates in soybean cotyledon: 0 μg/cotyledon
[5]
  Accumulation of soluble carbohydrates in soybean axis: 0 μg/axis
  Accumulation of soluble carbohydrates in soybean cotyledon: 0 μg/cotyledon
[6]
  Accumulation of soluble carbohydrates in soybean axis: 0 μg/axis
  Accumulation of soluble carbohydrates in soybean cotyledons: 0 μg/cotyledon
  Accumulation of soluble carbohydrates in soybean seed coats: 0 μg/seed coat
[7]
  Accumulation of soluble carbohydrates in soybean axis: 0 μg/axis
  Accumulation of soluble carbohydrates in soybean cotyledons: 0 μg/cotyledon
  Accumulation of soluble carbohydrates in soybean seed coats: 0 μg/seed coat
[8]
  Accumulation of soluble carbohydrates in soybean axis: 0 μg/axis
  Accumulation of soluble carbohydrates in soybean cotyledons: 0 μg/cotyledon
[9]
  Accumulation of soluble carbohydrates in soybean axis: 0 μg/axis
  Accumulation of soluble carbohydrates in soybean cotyledons: 0 μg/cotyledon
  Accumulation of soluble carbohydrates in soybean seed coats: 0 μg/seed coat
[10]
  Accumulation of soluble carbohydrates in soybean axis: 0 μg/axis
  Accumulation of soluble carbohydrates in soybean cotyledons: 1.29 μg/cotyledon
  Accumulation of soluble carbohydrates in soybean seed coats: 0 μg/seed coat
[11]
  Accumulation of soluble carbohydrates in soybean axis: 0 μg/axis
  Accumulation of soluble carbohydrates in soybean cotyledons: 5.27 μg/cotyledon
  Accumulation of soluble carbohydrates in soybean seed coats: 0 μg/seed coat
[12]
  Accumulation of soluble carbohydrates in soybean axis: 0 μg/axis
  Accumulation of soluble carbohydrates in soybean cotyledons: 0 μg/cotyledon
[13]
  Accumulation of soluble carbohydrates in soybean axis: 0 μg/axis
  Accumulation of soluble carbohydrates in soybean cotyledons: 0 μg/cotyledon
[14]
  Accumulation of soluble carbohydrates in soybean axis: 5.67 μg/axis
  Accumulation of soluble carbohydrates in soybean cotyledon: 2.69 μg/cotyledon
  Accumulation of soluble carbohydrates in soybean seed coats: 0 μg/seed coat
[15]
  Accumulation of soluble carbohydrates in soybean axis: 0 μg/axis
  Accumulation of soluble carbohydrates in soybean cotyledon: 0 μg/cotyledon
  Accumulation of soluble carbohydrates in soybean seed coats: 0 μg/seed coat
[16]
  Accumulation of soluble carbohydrates in soybean axis: 0 μg/axis
  Accumulation of soluble carbohydrates in soybean cotyledon: 11.94 μg/cotyledon
  Accumulation of soluble carbohydrates in soybean seed coats: 0 μg/seed coat
[17]
  Accumulation of soluble carbohydrates in soybean axis: 0 μg/axis
  Accumulation of soluble carbohydrates in soybean cotyledon: 2.08 μg/cotyledon
  Accumulation of soluble carbohydrates in soybean seed coats: 0 μg/seed coat
[18]
  Accumulation of soluble carbohydrates in soybean axis: 0 μg/axis
  Accumulation of soluble carbohydrates in soybean cotyledon: 4.52 μg/cotyledon
  Accumulation of soluble carbohydrates in soybean seed coats: 0 μg/seed coat
[19]
  Accumulation of soluble carbohydrates in soybean axis: 0 μg/axis
  Accumulation of soluble carbohydrates in soybean cotyledon: 4.65 μg/cotyledon
  Accumulation of soluble carbohydrates in soybean seed coats: 0 μg/seed coat
[20]
  Accumulation of soluble carbohydrates in soybean axis: 0 μg/axis
  Accumulation of soluble carbohydrates in soybean cotyledon: 0 μg/cotyledon
[21]
  Accumulation of soluble carbohydrates in soybean axis: 0 μg/axis
  Accumulation of soluble carbohydrates in soybean cotyledon: 0 μg/cotyledon
